# At least one structure is not confirmed: it was looked up by name or label, or the drawing left a doubt. Square brackets hold non-standard residues; d marks the D form. Peptide text beside a SMILES is read from it. * marks the point of attachment. Hyp = O=C(O)[C@@H]1C[C@@H](O)CN1; Cbz = O=C(OCc1ccccc1)*; Boc = CC(C)(C)OC(=O)*; Bn = c1ccc(C*)cc1; OtBu = CC(C)(C)O*
# Tested on: NIH3T3 cells expressing P-gp
# Assay: Chemosensitization to mitoxantrone, cell survival
# Format: cell-based
SMILES,restoration of sensitivity to mitoxantrone of cells overexpressing P-gp (1 μM compound (five times the IC50)),restoration of sensitivity to mitoxantrone of cells overexpressing P-gp (4 μM compound (five times the IC50))
"CC(C)(C)OC(=O)[C@H](CCCCNC(=O)OCc1ccccc1)NC[C@@H]1C[C@@H](OCc2ccccc2)CN1C(=O)OC(C)(C)C [No. 6, N^α-Boc-trans-L-4-Hyp(Bn)-ψ(CH2-NH)-L-Lys(Z)-OtBu]",completely restores the sensitivity,–
"CC(C)(C)OC(=O)[C@H](CCCCNC(=O)OCc1ccccc1)NC(=O)[C@@H]1C[C@@H](OCc2ccccc2)CN1C(=O)OC(C)(C)C [No. 4, N^α-Boc-trans-L-4-Hyp(Bn)-L-Lys(Z)-OtBu] (Boc-[Hyp](Bn)-Lys(Cbz)-OtBu)",–,completely restores the sensitivity

# Reference: patent publication US20120309811A1, “P-GLYCOPROTEIN-SPECIFIC NON-COMPETITIVE PEPTIDE AND PEPTIDOMIMETIC MODULATORS” (UNIVERSITE CLAUDE BERNARD - LYON 1, priority 2009, published 2012)
